{
  "source": "patent US20260308222A1",
  "about": "“STABILIZED ANALOGUES OF CALCITONIN” (YISSUM RESEARCH DEVELOPMENT COMPANY OF THE HEBREW …, priority 2024, published 2026)",
  "key": {"[1]": {"target": "T1, calcitonin receptor (CTR) (Homo sapiens, UniProt P30988)", "T1 sequence (P30988 25-474)": "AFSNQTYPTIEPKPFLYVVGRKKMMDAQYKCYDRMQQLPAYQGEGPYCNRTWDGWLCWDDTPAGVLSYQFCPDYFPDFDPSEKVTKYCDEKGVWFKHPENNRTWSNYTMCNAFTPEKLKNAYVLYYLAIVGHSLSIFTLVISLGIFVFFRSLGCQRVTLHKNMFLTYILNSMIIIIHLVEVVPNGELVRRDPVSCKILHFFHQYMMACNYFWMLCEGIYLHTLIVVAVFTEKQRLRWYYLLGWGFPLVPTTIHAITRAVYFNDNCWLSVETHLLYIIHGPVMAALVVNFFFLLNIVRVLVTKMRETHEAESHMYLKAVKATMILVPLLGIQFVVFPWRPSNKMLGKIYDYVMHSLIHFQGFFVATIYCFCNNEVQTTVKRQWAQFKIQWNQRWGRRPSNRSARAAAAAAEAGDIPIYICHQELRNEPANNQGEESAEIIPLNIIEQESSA", "experiment": "cAMP accumulation assay, U2OS Red cAMPNomad-CALCR cell line", "format": "cell-based", "set-up": "expressed in transfected cells; host or cells: U2OS Red cAMPNomad-CALCR", "conditions": "U2OS Red cAMPNomad-CALCR cells"}, "[2]": {"experiment": "Circular dichroism analysis, percent α-helicity", "format": "physicochemical", "conditions": "10 mM phosphate buffer pH 7, SDS", "protocol": "Following synthesis of the calcitonin analogues, the helicity of the calcitonin analogues was assessed by circular dichroism analysis. Far ultraviolet spectra (FIG. 6) were obtained from 195-260 nm on J-180 spectropolarimeter (Jasco) using 10-30 μM of sCT and all analogues in 10 mM phosphate buffer pH 7 and in the presence of sodium dodecyl sulphate (SDS), which were left for 2 h to allow folding. Each spectrum represents the average of 3 scans, and the mean residue ellipticity (θMRE) was calculated according to the following equation: […]\nPercentage helicity of peptides as presented in Table 2 was calculated according to the following equation (Sommese, et al. 2010): […]\nwhere n is the number of amino acids in the peptide."}},
  "note": "Entries after “also recorded” stand apart in the source; their conditions may differ. Part of at least one peptide drawing is inferred or uncertain, most often the ends.",
  "data": [
    {"smiles": "CC(C)C[C@@H]1NC(=O)[C@@H](NC(=O)CNC(=O)[C@H](CC(C)C)NC(=O)[C@@H](NC(=O)[C@@H]2CSSC[C@H](N)C(=O)N[C@@H](CO)C(=O)N[C@@H](CC(N)=O)C(=O)N[C@@H](CC(C)C)C(=O)N[C@@H](CO)C(=O)N[C@@H]([C@@H](C)O)C(=O)N2)C(C)C)CCCCNCc2cc(ccc2O)C[C@@H](C(=O)N2CCC[C@H]2C(=O)N[C@@H](CCC(N)=O)C(=O)N[C@H](C(=O)N[C@@H](CC(N)=O)C(=O)N[C@H](C(=O)NCC(=O)N[C@@H](CO)C(=O)NCC(=O)N[C@H](C(=O)N2CCC[C@H]2C(N)=O)[C@@H](C)O)[C@@H](C)O)[C@@H](C)O)NC(=O)[C@H]([C@@H](C)O)NC(=O)[C@H](CCC(N)=O)NC(=O)[C@H](CC(C)C)NC(=O)[C@H](CCCCN)NC(=O)[C@H](Cc2c[nH]cn2)NC(=O)[C@H](CC(C)C)NC(=O)[C@H](CCC(=O)O)NC(=O)[C@H](CCC(N)=O)NC(=O)[C@H](CO)NC1=O", "note": "[KaY-1(R24Q)]", "values": [
      {"measurement": "cAMP EC50 / potency", "setting": "[1]", "result": "EC50 in the nanomolar range; also recorded: unexpected enhanced potency; also recorded: enhanced potency in activating the cAMP pathway of the human calcitonin receptor compared with hCT"},
      {"measurement": "helicity retained following cyclization", "setting": "[2]", "result": "retain the high degree of helicity"},
      {"measurement": "% α helicity", "setting": "[2]; 10-30 μM peptide, 2 h folding", "result": 97.4, "unit": "%"}
    ]}
  ]
}
